Measurements from PubChem BioAssay AID2685 (National Center for Advancing Translational Sciences (NCATS), 2010).
The list shows a part of the results. Shown are side measurements of this screen, not its main read-out; they come without a call. Compounds called inactive in the main read-out are mostly missing here. Potencies come from curve fits of mixed quality, noted in brackets.

Test: qHTS Assay for Lipid Storage Modulators in Drosophila S3 Cells;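 for cell number change: cells counted by Cell Tracker Red CMTPX staining in the red channel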
Conditions: BODIPY lipid droplet fluorescence, 18-24 h; for cell number change: measured here: cell count max response, cells fed with added oleic acid
Outline: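 Drosophila S3 cells loaded with oleic acid (400 uM, as added) and compounds at several concentrations; lipid droplets imaged by 488-nm laser-scanning cytometry, 500–530 nm intensity and object ratio to cell channel. Percent activity normalized to 20 uM Triacsin C.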

[1] = measured here: lipid fluorescence (Fed channel) AC50, cells fed with added oleic acid
[2] = measured here: cell number channel AC50, cells fed with added oleic acid

CC(=O)Nc1cccc(-c2cc(-c3c(Cl)cccc3Cl)no2)c1
cell number change: 15.1%
AC50 [1]: 0.0651 µM [rising, partial curve, poor fit]

CCOC(=O)c1c(C)oc2c1c(C=NCCO)c(O)c1ccccc12
cell number change: 14.9%

CCN1CCN(CCCNC(=O)CNC(=O)c2nn(-c3ccc(OC)cc3)c(=O)c3ccccc23)CC1
cell number change: 13.1%

CCOc1cccc2sc(N(CCCN(C)C)C(=O)c3ccc(S(=O)(=O)N4CCc5ccccc5C4)cc3)nc12
cell number change: 30.2%
AC50 [2]: 2.59 µM [rising, full curve, poor fit]
AC50 [1]: 6.51 µM [rising, single point]

O=C(NC1CCCCCCC1)c1cccc(Cl)c1
cell number change: 18.7%
AC50 [1]: 0.259 µM [rising, full curve, poor fit]

Fc1ccccc1N1CCN(CC2CC3C=CC2C3)CC1 (configuration not stated)
cell number change: -17.6%
AC50 [1]: 0.731 µM [falling, single point]

c1ccc(CC2CCN(c3nc4ccccc4n4nnnc34)CC2)cc1
AC50 [2]: 2.06 µM [rising, partial curve]

Cc1cccc(-n2c(N)cc(=O)nc2SCC(=O)Nc2ccccc2)c1
cell number change: 40.3%
AC50 [2]: 29.1 µM [rising, single point]
AC50 [1]: 23.1 µM [rising, single point]

CCOc1ccc(Nc2nc(N(C)c3ccccc3)nc(N)c2[N+](=O)[O-])cc1
cell number change: 6.85%
AC50 [1]: 1.64 µM [falling, partial curve, poor fit]

CCOc1ncccc1C(=O)OCC(=O)Nc1cc(S(=O)(=O)N2CCOCC2)ccc1C
cell number change: 64.6%
AC50 [2]: 29.1 µM [rising, single point]
AC50 [1]: 1.84 µM [falling, single point]

CCN(CC)C(=O)CN(c1ccc2c(c1)OCO2)S(C)(=O)=O
cell number change: -52.5%
AC50 [2]: 29.1 µM [falling, single point]

O=C(Nc1ccncc1)C1(c2ccccc2)CCCC1
cell number change: 74.7%
AC50 [2]: 16.4 µM [rising, partial curve, poor fit]

Cc1ccc(-c2nc3ccc(NS(=O)(=O)c4ccccc4)cc3[nH]2)o1
AC50 [2]: 0.058 µM [rising, full curve, poor fit]
AC50 [1]: 6.51 µM [rising, partial curve, poor fit]

CN1CCN(C(CNC(=O)C(=O)Nc2ccc3c(c2)OCCO3)c2ccc(F)cc2)CC1 (configuration not stated)
cell number change: -0.98%
AC50 [2]: 1.84 µM [falling, partial curve]
AC50 [1]: 0.206 µM [falling, full curve, poor fit]

CCCC(=O)NCC(c1cccs1)S(=O)(=O)c1ccc(C)cc1 (configuration not stated)
cell number change: 5.81%
AC50 [1]: 4.11 µM [rising, full curve, poor fit]

O=C1NC(=S)N/C1=C/c1cccn1-c1ccc([N+](=O)[O-])cc1
cell number change: 41.9%

Cc1ccc(NC(=S)Nc2cccc(S(=O)(=O)Nc3c(C)n(C)n(-c4ccccc4)c3=O)c2)cc1
cell number change: 37.7%

CN(C[C@@H](CC1CCCCC1)N(C[C@H](Cc1ccccc1)N(CCc1ccccc1)N=O)N=O)N=O
cell number change: 11.9%
AC50 [1]: 29.1 µM [rising, single point]

CC(C)(C)N1CC(C(=O)Nc2ccc(S(N)(=O)=O)cc2)CC1=O (configuration not stated)
cell number change: -0.787%
AC50 [2]: 0.731 µM [falling, single point]

Cc1ccc(-n2c(SCC(=O)N3CC(=O)Nc4ccccc43)nc3ccccc3c2=O)cc1
cell number change: -14.1%
AC50 [1]: 7.31 µM [falling, partial curve]

CN(c1ccccc1)S(=O)(=O)c1ccc(NC(=O)c2ccccc2)cc1
cell number change: 30.1%
AC50 [2]: 9.2 µM [rising, single point]
AC50 [1]: 8.2 µM [rising, partial curve, poor fit]

Cc1cccc(COC(=O)C(Cc2ccccc2)NC(N)=O)c1 (configuration not stated)
cell number change: 6.96%
AC50 [1]: 6.51 µM [rising, single point]

O=C(NC1c2ccccc2-c2ccccc21)c1ccccc1
cell number change: -4.38%

O=C(Cc1cccs1)N(Cc1ccco1)C1(C(=O)NC2CCCCC2)CCCCC1
cell number change: 3.42%

O=[N+]([O-])c1cccc(S(=O)(=O)NCc2ccncc2)c1
AC50 [1]: 2.31 µM [falling, partial curve]

COc1ccc(C)cc1S(=O)(=O)N(CC(=O)Nc1ccc2c(c1)OCCO2)Cc1ccccc1
cell number change: 71.6%
AC50 [2]: 2.06 µM [rising, full curve]
AC50 [1]: 9.2 µM [rising, partial curve]

Cc1cc(N2CCN(C)CC2)nc(N2CCOCC2)n1
cell number change: -119%
AC50 [2]: 25.9 µM [falling, partial curve, poor fit]
AC50 [1]: 16.4 µM [falling, partial curve]

CS(=O)(=O)N(Cc1ccccc1)c1ccc(C(=O)NCC2CCCO2)cc1 (configuration not stated)
cell number change: 30.4%

O=C(c1ccccc1)c1ccc(N2CCN(C(=O)c3cccc(F)c3F)CC2)c(F)c1
cell number change: -24.6%

O=C1CC(N2CCN(S(=O)(=O)c3ccc([N+](=O)[O-])cc3)CC2)C(=O)N1c1ccccc1F (configuration not stated)
cell number change: -29.7%
AC50 [1]: 29.1 µM [falling, single point]

O=C(COC(=O)C12CC3CC(CC(C3)C1)C2)Nc1ccccc1F
cell number change: -32%
AC50 [2]: 20.6 µM [falling, partial curve, poor fit]
AC50 [1]: 36.6 µM [falling, partial curve, poor fit]

CCc1nnc(NC(=O)c2cccc(S(=O)(=O)N(C)c3ccccc3)c2)s1
cell number change: 43.5%
AC50 [2]: 3.26 µM [rising, full curve]

Cc1cccc(NC(=S)N/N=C/C(C)c2ccccc2)c1C (configuration not stated)
cell number change: -48.1%

O=C(O)CCC(=O)N1CCN(c2nc3ccccc3s2)CC1
cell number change: -2.37%

CCCN(CC(=O)Nc1ccccc1OC)C(=O)CCC(=O)c1ccc(F)cc1
AC50 [1]: 29.1 µM [falling, single point]

CC(=O)Nc1cccc(NC(=O)CSc2ncc(C(=O)Nc3ccccc3)c(=O)n2C)c1
cell number change: -75%
AC50 [2]: 14.6 µM [falling, partial curve]
AC50 [1]: 20.6 µM [falling, partial curve]

CCCS(=O)(=O)N1CCCC(C(=O)N2CCOCC2)C1 (configuration not stated)
cell number change: 1.15%

O=C(Nc1ccc(F)cc1)Nc1ccccc1N1CCCCC1
cell number change: -14.9%
AC50 [1]: 20.6 µM [falling, single point]

CN(NC(=O)c1ccccc1F)c1ncccc1[N+](=O)[O-]
cell number change: 13.7%
AC50 [1]: 1.3 µM [falling, partial curve]

CCn1c2ccccc2c2cc(NC(=O)COC(=O)c3cc(Cl)c(N)cc3OC)ccc21
cell number change: 16.4%
AC50 [1]: 0.164 µM [rising, full curve, poor fit]

CCCC1S/C(=N/N=C/c2cccs2)NC1=O (configuration not stated)
cell number change: 6.65%
AC50 [1]: 16.4 µM [rising, single point]

Cc1ccc(S(=O)(=O)N(C)CC(=O)N2CCCCCCC2)cc1
cell number change: -11%
AC50 [1]: 0.326 µM [falling, single point]

CCOC(=O)Cc1csc(NC(=O)/C=C/c2ccco2)n1
cell number change: -0.245%
AC50 [1]: 9.2 µM [falling, partial curve]

C=CCOc1ccc2oc(=O)cc(C)c2c1
cell number change: 2.04%
AC50 [1]: 0.00461 µM [rising, full curve, poor fit]

CC(=O)c1c(C)[nH]c(C(=O)OCC(=O)Nc2cc(Cl)ccc2[N+](=O)[O-])c1C
cell number change: -17%

CCC(CC)C(=O)NCCc1ccc(OC)c(OC)c1
cell number change: 7.75%

S=c1[nH]c2ccccc2n2cccc12
AC50 [1]: 0.58 µM [rising, single point]

CCN(CC)c1ccc2c(C)c(CO)c(=O)oc2c1
cell number change: 28.6%
AC50 [1]: 4.61 µM [rising, single point]

Cc1csc(=N)n1CC(=O)N1CCc2ccccc21
cell number change: 54.1%
AC50 [2]: 20.6 µM [rising, single point]

O=C(Nc1cccc(Cl)c1)c1cc(S(=O)(=O)N2CCOCC2)cs1
cell number change: -0.147%
AC50 [2]: 6.51 µM [rising, single point]

O=C(CN1CCN(Cc2ccccc2)C1=O)NCc1cccs1
cell number change: -53.3%
AC50 [2]: 8.2 µM [falling, partial curve]
AC50 [1]: 0.82 µM [falling, full curve]

COc1cccc(N=Nc2c(=O)[nH]n3c(=O)cc(C)[nH]c23)c1
cell number change: 0.62%
AC50 [1]: 0.411 µM [falling, single point]

CS(=O)(=O)N1N=C(c2ccc(Cl)cc2)CC1c1cccs1 (configuration not stated)
cell number change: 160%
AC50 [2]: 20.6 µM [rising, partial curve]
AC50 [1]: 2.06 µM [rising, partial curve]

COc1ccccc1-n1cnc2c(c1=O)c1nc3ccccc3nc1n2CCc1ccccc1
cell number change: 28.8%
AC50 [2]: 0.259 µM [rising, full curve, poor fit]
AC50 [1]: 0.231 µM [rising, full curve, poor fit]

Cc1cc(Oc2ccccc2F)nc(NCc2ccccc2)n1
cell number change: -11%
AC50 [2]: 6.51 µM [rising, single point]
AC50 [1]: 6.51 µM [rising, single point]

O=c1c2cccnc2n(-c2ccccc2)n1Cc1ccc(Cl)cc1
cell number change: 96.7%
AC50 [2]: 1.84 µM [rising, full curve]
AC50 [1]: 0.58 µM [rising, partial curve]

CC(=O)Nc1ccccc1C
cell number change: 1.36%
AC50 [2]: 0.461 µM [falling, single point]
AC50 [1]: 0.082 µM [rising, full curve, poor fit]

C/C(=N\NC(=O)c1cccc(S(=O)(=O)N2CCCC2)c1)c1ccc(OCC(=O)N(C)C)cc1
cell number change: 40.5%
AC50 [2]: 8.2 µM [rising, partial curve]

O=C(O)[C@@H]1CCCN1c1ncnc2sc3c(c12)CCC3
AC50 [1]: 2.91 µM [falling, single point]

O=C(O)CC1SC(=O)N(Cc2ccccc2)C1=O (configuration not stated)
cell number change: -18.6%
AC50 [1]: 0.517 µM [falling, full curve]
